In the supplement of paper PMC12823440, “Inhibitors supercharge kinase turnover through native proteolytic circuits” (Nature, 2025):
Counter-ions that a name gives are not always drawn. The list shows a part of the results. Hit calls seldom repeat between salt and free forms of one compound.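 In K562 cells expressing nanoluciferase-fused kinases, luminescence was recorded at 4 h intervals between 2 and 18 h, normalized as percent of control with DMSO at 100% and a positive control at 0%. A significant (2 sigma) signal drop marks a time point as decreased. The authors' rule for a hit is not shown and takes in more than the number of time points.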

Chains of the proteins cited; added tags and fusions are not shown. Lines headed by an entry give the natural chain unless they say otherwise; changes in a name come on top.
UniProt O75460: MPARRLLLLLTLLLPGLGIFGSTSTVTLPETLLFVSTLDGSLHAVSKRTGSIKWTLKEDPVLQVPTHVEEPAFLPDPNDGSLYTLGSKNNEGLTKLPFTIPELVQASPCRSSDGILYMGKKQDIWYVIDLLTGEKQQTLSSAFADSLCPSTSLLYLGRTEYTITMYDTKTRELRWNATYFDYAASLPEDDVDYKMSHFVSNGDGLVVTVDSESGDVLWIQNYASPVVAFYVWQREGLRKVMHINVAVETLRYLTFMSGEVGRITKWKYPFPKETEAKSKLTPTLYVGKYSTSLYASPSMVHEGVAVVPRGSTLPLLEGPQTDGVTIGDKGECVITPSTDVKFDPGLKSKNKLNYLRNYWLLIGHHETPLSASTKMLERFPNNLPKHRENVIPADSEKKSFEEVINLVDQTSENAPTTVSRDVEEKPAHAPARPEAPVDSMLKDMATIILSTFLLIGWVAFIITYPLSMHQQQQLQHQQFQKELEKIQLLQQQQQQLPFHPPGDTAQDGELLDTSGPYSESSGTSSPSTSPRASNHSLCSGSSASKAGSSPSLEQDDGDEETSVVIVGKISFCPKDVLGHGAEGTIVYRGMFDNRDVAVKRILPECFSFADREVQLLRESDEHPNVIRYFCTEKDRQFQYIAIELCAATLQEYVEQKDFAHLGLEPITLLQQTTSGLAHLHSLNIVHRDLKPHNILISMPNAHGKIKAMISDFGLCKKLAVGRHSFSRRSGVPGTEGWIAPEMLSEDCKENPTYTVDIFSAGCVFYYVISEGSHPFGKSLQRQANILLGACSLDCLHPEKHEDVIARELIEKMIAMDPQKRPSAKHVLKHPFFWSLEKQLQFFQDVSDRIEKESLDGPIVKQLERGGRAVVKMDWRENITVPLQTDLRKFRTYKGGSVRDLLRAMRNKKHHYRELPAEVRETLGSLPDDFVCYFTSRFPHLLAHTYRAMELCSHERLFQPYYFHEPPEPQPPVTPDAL
UniProt P11362, whole entry, looked up: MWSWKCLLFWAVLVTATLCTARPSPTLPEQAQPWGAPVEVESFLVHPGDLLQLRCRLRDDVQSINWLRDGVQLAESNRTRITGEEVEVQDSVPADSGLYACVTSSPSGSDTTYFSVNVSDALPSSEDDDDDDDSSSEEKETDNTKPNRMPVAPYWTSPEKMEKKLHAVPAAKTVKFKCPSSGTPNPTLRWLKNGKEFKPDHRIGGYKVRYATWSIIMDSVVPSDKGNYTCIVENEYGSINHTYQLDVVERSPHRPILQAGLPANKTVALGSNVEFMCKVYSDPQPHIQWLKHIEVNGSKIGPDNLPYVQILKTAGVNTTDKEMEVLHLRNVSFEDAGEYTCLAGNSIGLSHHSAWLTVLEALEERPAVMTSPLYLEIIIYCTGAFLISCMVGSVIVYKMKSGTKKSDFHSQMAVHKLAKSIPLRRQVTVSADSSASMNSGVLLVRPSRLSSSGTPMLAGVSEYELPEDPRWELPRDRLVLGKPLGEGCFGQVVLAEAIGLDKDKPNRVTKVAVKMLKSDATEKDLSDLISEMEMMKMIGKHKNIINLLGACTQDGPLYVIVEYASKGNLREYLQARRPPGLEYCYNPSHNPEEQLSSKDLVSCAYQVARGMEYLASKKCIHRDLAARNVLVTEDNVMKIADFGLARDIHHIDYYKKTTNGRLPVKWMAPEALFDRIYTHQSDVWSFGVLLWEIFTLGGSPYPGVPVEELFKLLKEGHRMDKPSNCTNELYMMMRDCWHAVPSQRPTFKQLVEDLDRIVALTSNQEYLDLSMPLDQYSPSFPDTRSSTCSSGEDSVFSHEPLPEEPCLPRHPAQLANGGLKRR
UniProt P22607, whole entry, looked up: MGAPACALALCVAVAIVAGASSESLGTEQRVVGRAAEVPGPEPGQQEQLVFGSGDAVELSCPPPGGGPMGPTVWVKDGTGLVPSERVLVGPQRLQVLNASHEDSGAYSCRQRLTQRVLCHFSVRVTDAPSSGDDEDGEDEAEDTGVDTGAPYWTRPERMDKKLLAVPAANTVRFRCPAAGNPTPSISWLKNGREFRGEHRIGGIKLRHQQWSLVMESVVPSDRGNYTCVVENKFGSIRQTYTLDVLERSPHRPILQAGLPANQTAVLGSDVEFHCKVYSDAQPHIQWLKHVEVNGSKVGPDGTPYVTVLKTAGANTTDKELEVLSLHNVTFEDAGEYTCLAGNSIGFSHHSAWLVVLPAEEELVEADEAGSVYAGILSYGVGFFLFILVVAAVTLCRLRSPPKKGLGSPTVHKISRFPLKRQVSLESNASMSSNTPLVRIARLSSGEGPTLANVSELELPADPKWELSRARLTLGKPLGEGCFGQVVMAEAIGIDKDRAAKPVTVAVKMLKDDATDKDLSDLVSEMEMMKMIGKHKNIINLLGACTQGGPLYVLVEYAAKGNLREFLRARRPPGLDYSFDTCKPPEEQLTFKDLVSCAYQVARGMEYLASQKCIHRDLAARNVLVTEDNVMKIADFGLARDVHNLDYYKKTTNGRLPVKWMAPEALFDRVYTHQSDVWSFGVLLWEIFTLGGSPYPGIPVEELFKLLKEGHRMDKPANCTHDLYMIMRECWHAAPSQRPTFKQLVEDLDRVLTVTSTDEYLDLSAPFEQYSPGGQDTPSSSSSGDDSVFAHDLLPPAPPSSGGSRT
UniProt P36888, whole entry: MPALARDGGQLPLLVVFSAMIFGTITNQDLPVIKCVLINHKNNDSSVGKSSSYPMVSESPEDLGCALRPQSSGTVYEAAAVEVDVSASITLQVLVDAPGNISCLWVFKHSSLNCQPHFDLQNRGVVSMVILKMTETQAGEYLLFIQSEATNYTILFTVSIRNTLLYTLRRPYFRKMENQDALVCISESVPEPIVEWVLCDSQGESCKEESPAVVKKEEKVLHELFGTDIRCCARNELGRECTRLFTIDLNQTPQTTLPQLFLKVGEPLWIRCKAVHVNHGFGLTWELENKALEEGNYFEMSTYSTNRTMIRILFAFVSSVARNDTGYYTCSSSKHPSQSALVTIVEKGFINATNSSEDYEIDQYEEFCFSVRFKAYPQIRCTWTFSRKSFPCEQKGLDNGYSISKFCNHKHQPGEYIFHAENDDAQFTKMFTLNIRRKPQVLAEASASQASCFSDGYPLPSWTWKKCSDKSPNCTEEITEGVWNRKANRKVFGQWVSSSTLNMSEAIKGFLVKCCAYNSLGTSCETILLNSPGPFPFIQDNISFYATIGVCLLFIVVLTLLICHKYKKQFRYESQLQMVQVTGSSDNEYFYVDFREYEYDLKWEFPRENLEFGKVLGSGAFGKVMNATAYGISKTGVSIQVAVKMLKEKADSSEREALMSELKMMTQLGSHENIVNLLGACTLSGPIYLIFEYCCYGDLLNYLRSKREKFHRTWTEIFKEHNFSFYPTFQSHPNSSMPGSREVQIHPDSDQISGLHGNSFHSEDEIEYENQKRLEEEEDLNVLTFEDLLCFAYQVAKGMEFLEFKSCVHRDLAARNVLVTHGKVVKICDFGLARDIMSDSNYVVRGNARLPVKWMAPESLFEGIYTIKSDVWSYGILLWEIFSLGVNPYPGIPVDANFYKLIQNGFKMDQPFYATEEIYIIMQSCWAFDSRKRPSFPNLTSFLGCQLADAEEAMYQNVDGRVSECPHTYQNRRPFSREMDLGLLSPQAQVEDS
UniProt P06241, whole entry, looked up: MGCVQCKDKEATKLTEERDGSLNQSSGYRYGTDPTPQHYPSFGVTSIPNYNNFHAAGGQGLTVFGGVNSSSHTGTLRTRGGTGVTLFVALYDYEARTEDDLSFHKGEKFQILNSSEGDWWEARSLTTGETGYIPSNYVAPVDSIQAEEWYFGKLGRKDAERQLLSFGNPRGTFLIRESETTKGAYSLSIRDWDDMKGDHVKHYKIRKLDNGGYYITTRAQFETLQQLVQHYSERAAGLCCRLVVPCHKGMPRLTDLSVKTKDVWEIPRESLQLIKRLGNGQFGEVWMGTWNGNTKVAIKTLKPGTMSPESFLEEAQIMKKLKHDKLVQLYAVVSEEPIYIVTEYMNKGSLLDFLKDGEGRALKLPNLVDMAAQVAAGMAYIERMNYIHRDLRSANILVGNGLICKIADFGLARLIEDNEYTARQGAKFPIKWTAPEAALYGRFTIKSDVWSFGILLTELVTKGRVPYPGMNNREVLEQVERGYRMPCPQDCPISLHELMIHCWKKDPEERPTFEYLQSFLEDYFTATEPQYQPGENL
UniProt P49840: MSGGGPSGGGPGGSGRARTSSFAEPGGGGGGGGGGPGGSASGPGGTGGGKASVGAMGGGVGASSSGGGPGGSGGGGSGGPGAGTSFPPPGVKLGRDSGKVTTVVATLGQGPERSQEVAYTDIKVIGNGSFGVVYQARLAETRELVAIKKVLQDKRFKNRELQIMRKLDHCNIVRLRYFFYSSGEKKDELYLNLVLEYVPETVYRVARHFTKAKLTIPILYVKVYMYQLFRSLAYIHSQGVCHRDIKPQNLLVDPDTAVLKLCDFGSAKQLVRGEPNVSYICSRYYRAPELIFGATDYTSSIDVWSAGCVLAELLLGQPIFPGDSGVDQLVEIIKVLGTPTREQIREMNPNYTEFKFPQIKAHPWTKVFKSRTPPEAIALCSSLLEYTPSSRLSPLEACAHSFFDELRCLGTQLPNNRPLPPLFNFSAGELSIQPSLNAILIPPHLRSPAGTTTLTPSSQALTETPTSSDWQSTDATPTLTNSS
UniProt P14616: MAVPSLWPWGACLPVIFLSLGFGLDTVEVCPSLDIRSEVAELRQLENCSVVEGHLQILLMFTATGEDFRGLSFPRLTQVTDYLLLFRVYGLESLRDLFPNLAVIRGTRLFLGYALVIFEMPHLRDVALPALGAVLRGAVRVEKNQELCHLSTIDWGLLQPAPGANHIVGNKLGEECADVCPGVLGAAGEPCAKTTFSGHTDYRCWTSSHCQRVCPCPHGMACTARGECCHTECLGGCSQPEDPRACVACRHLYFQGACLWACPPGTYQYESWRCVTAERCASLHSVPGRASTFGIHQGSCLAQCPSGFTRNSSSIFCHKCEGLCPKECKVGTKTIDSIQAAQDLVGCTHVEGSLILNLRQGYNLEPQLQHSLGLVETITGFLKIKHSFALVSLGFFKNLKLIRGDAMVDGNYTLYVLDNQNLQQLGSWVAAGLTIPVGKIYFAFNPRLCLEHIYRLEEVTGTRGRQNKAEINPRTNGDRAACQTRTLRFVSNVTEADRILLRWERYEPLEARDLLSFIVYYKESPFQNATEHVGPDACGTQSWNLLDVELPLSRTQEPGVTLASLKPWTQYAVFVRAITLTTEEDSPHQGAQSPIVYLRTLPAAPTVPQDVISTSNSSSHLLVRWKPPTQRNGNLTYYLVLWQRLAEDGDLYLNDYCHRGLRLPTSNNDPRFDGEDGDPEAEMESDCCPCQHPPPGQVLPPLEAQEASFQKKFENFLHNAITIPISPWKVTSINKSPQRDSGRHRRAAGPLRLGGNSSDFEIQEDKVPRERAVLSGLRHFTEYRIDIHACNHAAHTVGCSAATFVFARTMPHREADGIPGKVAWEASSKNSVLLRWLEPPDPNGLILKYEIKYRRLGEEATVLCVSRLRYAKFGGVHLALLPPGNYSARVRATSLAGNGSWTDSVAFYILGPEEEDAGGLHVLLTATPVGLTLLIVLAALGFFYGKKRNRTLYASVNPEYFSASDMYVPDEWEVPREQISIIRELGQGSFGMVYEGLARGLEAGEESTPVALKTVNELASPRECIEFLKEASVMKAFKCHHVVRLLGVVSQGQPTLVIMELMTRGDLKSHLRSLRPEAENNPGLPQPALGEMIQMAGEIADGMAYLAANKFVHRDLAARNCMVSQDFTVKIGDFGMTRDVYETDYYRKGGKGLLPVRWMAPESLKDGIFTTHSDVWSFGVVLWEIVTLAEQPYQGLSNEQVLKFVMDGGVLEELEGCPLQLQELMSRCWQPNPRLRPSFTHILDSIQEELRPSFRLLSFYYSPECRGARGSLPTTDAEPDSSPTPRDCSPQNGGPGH

How the values were obtained:
Assay in all cases: kinase-Nluc reporter destabilization hit call (1 = scored as downregulated) (binary); higher = compound decreases kinase abundance
Settings in all cases: K562; 2-18 h
ERN1 = ERN1 (UniProt O75460)
FGFR1 = FGFR1 (UniProt P11362)
FGFR2 = FGFR2 (UniProt P21802)
FGFR3 = FGFR3 (UniProt P22607)
FGR = FGR (UniProt P09769)
FLT3 = FLT3 (UniProt P36888)
FYN = FYN (UniProt P06241)
GSK3A = GSK3A (UniProt P49840)
HER2 = HER2 (UniProt P04626)
INSRR = INSRR (UniProt P14616)

Measured: kinase-Nluc reporter destabilization hit call

Cc1cc(Nc2cc(N)ncn2)c(=O)n2c1C(=O)NC21CCCCC1 [Tomivosertib] (10 µM)
inactive: ERN1 = 0 | FGFR1 = 0 | FGFR2 = 0 | FGFR3 = 0 | FGR 0 | FLT3 = 0 | FYN 0 | GSK3A 0 | HER2 = 0 | INSRR 0

CO[C@H]1C[C@@H]2CC[C@@H](C)[C@@](O)(O2)C(=O)C(=O)N2CCCC[C@H]2C(=O)O[C@H]([C@H](C)C[C@@H]2CC[C@@H](OCCO)[C@H](OC)C2)CC(=O)[C@H](C)/C=C(\C)[C@@H](O)[C@@H](OC)C(=O)[C@H](C)C[C@H](C)/C=C/C=C/C=C/1C [Everolimus] (10 µM)
inactive: ERN1 = 0 | FGFR1 = 0 | FGFR2 = 0 | FGFR3 = 0 | FGR 0 | FLT3 = 0 | FYN 0 | GSK3A 0 | HER2 = 0 | INSRR 0

NCCOc1ccc(Cl)cc1C(=O)Nc1ccc([N+](=O)[O-])cc1Cl [HJC0152 hydrochloride] (2 µM)
inactive: ERN1 = 0 | FGFR1 = 0 | FGFR2 = 0 | FGFR3 = 0 | FGR 0 | FLT3 = 0 | FYN 0 | GSK3A 0 | HER2 = 0 | INSRR 0

CC(C)CCN1c2nc(Nc3cc(F)c(O)c(F)c3)ncc2N(C)C(=O)C1C (stereo not given) (2.5 µM)
inactive: ERN1 = 0 | FGFR1 = 0 | FGFR2 = 0 | FGFR3 = 0 | FGR 0 | FLT3 = 0 | FYN 0 | GSK3A 0 | HER2 = 0 | INSRR 0

CCN(CC)CCOc1ccc(Nc2nc(-c3ccccc3NC(=O)CCN3CCN(C)CC3)nc3ccccc23)cc1 (2.5 µM)
inactive: ERN1 = 0 | FGFR1 = 0 | FGFR2 = 0 | FGFR3 = 0 | FGR 0 | FLT3 = 0 | FYN 0 | GSK3A 0 | HER2 = 0 | INSRR 0

For convenience, 2 of the compounds above.
Cc1cc(Nc2cc(N)ncn2)c(=O)n2c1C(=O)NC21CCCCC1 [Tomivosertib] (10 µM)
inactive: ERN1 = 0 | FGFR1 = 0 | FGFR2 = 0 | FGFR3 = 0 | FGR 0 | FLT3 = 0 | FYN 0 | GSK3A 0 | HER2 = 0 | INSRR 0

CO[C@H]1C[C@@H]2CC[C@@H](C)[C@@](O)(O2)C(=O)C(=O)N2CCCC[C@H]2C(=O)O[C@H]([C@H](C)C[C@@H]2CC[C@@H](OCCO)[C@H](OC)C2)CC(=O)[C@H](C)/C=C(\C)[C@@H](O)[C@@H](OC)C(=O)[C@H](C)C[C@H](C)/C=C/C=C/C=C/1C [Everolimus] (10 µM)
inactive: ERN1 = 0 | FGFR1 = 0 | FGFR2 = 0 | FGFR3 = 0 | FGR 0 | FLT3 = 0 | FYN 0 | GSK3A 0 | HER2 = 0 | INSRR 0

More structures.

c1ccc(Cn2c(-c3ccc(OC[C@H](C4CCNCC4)n4c(-c5ccccc5)nc5ccccc54)cc3)nc3ccccc32)cc1 [Deltarasin] (2.5 µM)
inactive: ERN1 = 0 | FGFR1 = 0 | FGFR2 = 0 | FGFR3 = 0 | FGR 0 | FLT3 = 0 | FYN 0 | GSK3A 0 | HER2 = 0 | INSRR 0

COc1ccc2c3n(c(=NC(=O)c4cccnc4)nc2c1OC)CCN3 (2 µM)
inactive: ERN1 = 0 | FGFR1 = 0 | FGFR2 = 0 | FGFR3 = 0 | FGR 0 | FLT3 = 0 | FYN 0 | GSK3A 0 | HER2 = 0 | INSRR 0

CN(C)c1ccc(-c2nc3ncc(Cl)c(N4CCN(CC(=O)Nc5nccs5)CC4)c3[nH]2)cc1 (2 µM)
inactive: ERN1 = 0 | FGFR1 = 0 | FGFR2 = 0 | FGFR3 = 0 | FGR 0 | FLT3 = 0 | FYN 0 | GSK3A 0 | HER2 = 0 | INSRR 0

O=C1Nc2ccc(CN3C(=O)CSC3=O)cc2/C1=C/c1cc(CN2CCOCC2)c[nH]1 (10 µM)
inactive: ERN1 = 0 | FGFR1 = 0 | FGFR2 = 0 | FGFR3 = 0 | FGR 0 | FLT3 = 0 | FYN 0 | GSK3A 0 | HER2 = 0 | INSRR 0

CCCn1/c(=N/C(=O)c2cccc(C(N)=O)c2)[nH]c2ccccc21 [Takinib] (10 µM)
inactive: ERN1 = 0 | FGFR1 = 0 | FGFR2 = 0 | FGFR3 = 0 | FGR 0 | FLT3 = 0 | FYN 0 | GSK3A 0 | HER2 = 0 | INSRR 0

Clc1ccc(C(c2ccc(Cl)cc2)[n+]2ccn(CC(OCc3ccc(Cl)cc3Cl)c3ccc(Cl)cc3Cl)c2)cc1 (stereo not given) [Calmidazolium chloride] (2.5 µM)
inactive: ERN1 = 0 | FGFR1 = 0 | FGFR2 = 0 | FGFR3 = 0 | FGR 0 | FLT3 = 0 | FYN 0 | GSK3A 0 | HER2 = 0 | INSRR 0

COc1cc(-c2oc3cc(O)cc(O)c3c(=O)c2O)ccc1O [Isorhamnetin] (10 µM)
inactive: ERN1 = 0 | FGFR1 = 0 | FGFR2 = 0 | FGFR3 = 0 | FGR 0 | FLT3 = 0 | FYN 0 | GSK3A 0 | HER2 = 0 | INSRR 0

Cn1ncc(NC(=O)c2nc(-c3c(F)cccc3F)sc2N)c1N1CC[C@@H](N)[C@H](F)CC1 (10 µM)
inactive: ERN1 = 0 | FGFR1 = 0 | FGFR2 = 0 | FGFR3 = 0 | FGR 0 | FLT3 = 0 | FYN 0 | GSK3A 0 | HER2 = 0 | INSRR 0

COc1ccc(Nc2ncc(C(F)(F)F)c(NC3CC3)n2)cc1OC (10 µM)
inactive: ERN1 = 0 | FGFR1 = 0 | FGFR2 = 0 | FGFR3 = 0 | FGR 0 | FLT3 = 0 | FYN 0 | GSK3A 0 | HER2 = 0 | INSRR 0

CC(Sc1nc2c(cnn2-c2cccc(Cl)c2)c(=O)[nH]1)C(N)=O (stereo not given) (10 µM)
inactive: ERN1 = 0 | FGFR1 = 0 | FGFR2 = 0 | FGFR3 = 0 | FGR 0 | FLT3 = 0 | FYN 0 | GSK3A 0 | HER2 = 0 | INSRR 0

Nc1[nH]nc2nc(-c3ccc(NS(=O)(=O)c4cc(Cl)ccc4Cl)cc3)cnc12 (10 µM)
inactive: ERN1 = 0 | FGFR1 = 0 | FGFR2 = 0 | FGFR3 = 0 | FGR 0 | FLT3 = 0 | FYN 0 | GSK3A 0 | HER2 = 0 | INSRR 0

O=C(O)[C@H]1O[C@@H](Oc2cc3oc(-c4ccc(O)cc4)cc(=O)c3c(O)c2O)[C@H](O)[C@@H](O)[C@@H]1O [Scutellarin] (10 µM)
inactive: ERN1 = 0 | FGFR1 = 0 | FGFR2 = 0 | FGFR3 = 0 | FGR 0 | FLT3 = 0 | FYN 0 | GSK3A 0 | HER2 = 0 | INSRR 0

CO[C@H]1C[C@@H]2CC[C@@H](C)[C@@](O)(O2)C(=O)C(=O)N2CCCC[C@H]2C(=O)O[C@H]([C@H](C)C[C@@H]2CC[C@@H](OC(=O)C(C)(CO)CO)[C@H](OC)C2)CC(=O)[C@H](C)/C=C(\C)[C@@H](O)[C@@H](OC)C(=O)[C@H](C)C[C@H](C)/C=C/C=C/C=C/1C [Temsirolimus] (2.5 µM)
inactive: ERN1 = 0 | FGFR1 = 0 | FGFR2 = 0 | FGFR3 = 0 | FGR 0 | FLT3 = 0 | FYN 0 | GSK3A 0 | HER2 = 0 | INSRR 0

CC(C)n1ncnc1-c1cn2c(n1)-c1ccc(O[C@@H](C)C(N)=O)cc1OCC2 (10 µM)
inactive: ERN1 = 0 | FGFR1 = 0 | FGFR2 = 0 | FGFR3 = 0 | FGR 0 | FLT3 = 0 | FYN 0 | GSK3A 0 | HER2 = 0 | INSRR 0

CC(C)=CCC/C(C)=C/CC/C(C)=C/C=C/C(C)=C/C(=O)O [Peretinoin] (10 µM)
inactive: ERN1 = 0 | FGFR1 = 0 | FGFR2 = 0 | FGFR3 = 0 | FGR 0 | FLT3 = 0 | FYN 0 | GSK3A 0 | HER2 = 0 | INSRR 0

Nc1nc2c(nc(Br)n2[C@@H]2O[C@@H]3COP(=O)(O)O[C@H]3[C@H]2O)c(=O)[nH]1 [8-Bromo-cGMP (sodium)] (10 µM)
inactive: ERN1 = 0 | FGFR1 = 0 | FGFR2 = 0 | FGFR3 = 0 | FGR 0 | FLT3 = 0 | FYN 0 | GSK3A 0 | HER2 = 0 | INSRR 0

Nc1nc(N)c2nc(-c3cccc(O)c3)c(-c3cccc(O)c3)nc2n1 (10 µM)
inactive: ERN1 = 0 | FGFR1 = 0 | FGFR2 = 0 | FGFR3 = 0 | FGR 0 | FLT3 = 0 | FYN 0 | GSK3A 0 | HER2 = 0 | INSRR 0

O=C(NCCN1CCOCC1)Nc1nc2ccc(Sc3nnc4ccc(-c5ccc(F)cc5)nn34)cc2s1 (10 µM)
inactive: ERN1 = 0 | FGFR1 = 0 | FGFR2 = 0 | FGFR3 = 0 | FGR 0 | FLT3 = 0 | FYN 0 | GSK3A 0 | HER2 = 0 | INSRR 0

CNC(=O)CNc1cnc2ccc(-c3ccc(OC)c(OC)c3)cc2n1 (10 µM)
inactive: ERN1 = 0 | FGFR1 = 0 | FGFR2 = 0 | FGFR3 = 0 | FGR 0 | FLT3 = 0 | FYN 0 | GSK3A 0 | HER2 = 0 | INSRR 0

Cc1cc(CSc2ccccc2C(=O)NCCNc2ccc(C(F)(F)F)cc2[N+](=O)[O-])on1 (10 µM)
inactive: ERN1 = 0 | FGFR1 = 0 | FGFR2 = 0 | FGFR3 = 0 | FGR 0 | FLT3 = 0 | FYN 0 | GSK3A 0 | HER2 = 0 | INSRR 0
